These are yes or no findings as the source states them, for the method shown. In cells and extracts the contact can be indirect. Some binding calls cover weakened binding; strength is not graded here. For part of these data: Where a sequence is shown, tags or fusion partners need not be part of it.

Protein sequences, listed by entry. Tags and fused reporters are not part of them.
UniProt Q14289: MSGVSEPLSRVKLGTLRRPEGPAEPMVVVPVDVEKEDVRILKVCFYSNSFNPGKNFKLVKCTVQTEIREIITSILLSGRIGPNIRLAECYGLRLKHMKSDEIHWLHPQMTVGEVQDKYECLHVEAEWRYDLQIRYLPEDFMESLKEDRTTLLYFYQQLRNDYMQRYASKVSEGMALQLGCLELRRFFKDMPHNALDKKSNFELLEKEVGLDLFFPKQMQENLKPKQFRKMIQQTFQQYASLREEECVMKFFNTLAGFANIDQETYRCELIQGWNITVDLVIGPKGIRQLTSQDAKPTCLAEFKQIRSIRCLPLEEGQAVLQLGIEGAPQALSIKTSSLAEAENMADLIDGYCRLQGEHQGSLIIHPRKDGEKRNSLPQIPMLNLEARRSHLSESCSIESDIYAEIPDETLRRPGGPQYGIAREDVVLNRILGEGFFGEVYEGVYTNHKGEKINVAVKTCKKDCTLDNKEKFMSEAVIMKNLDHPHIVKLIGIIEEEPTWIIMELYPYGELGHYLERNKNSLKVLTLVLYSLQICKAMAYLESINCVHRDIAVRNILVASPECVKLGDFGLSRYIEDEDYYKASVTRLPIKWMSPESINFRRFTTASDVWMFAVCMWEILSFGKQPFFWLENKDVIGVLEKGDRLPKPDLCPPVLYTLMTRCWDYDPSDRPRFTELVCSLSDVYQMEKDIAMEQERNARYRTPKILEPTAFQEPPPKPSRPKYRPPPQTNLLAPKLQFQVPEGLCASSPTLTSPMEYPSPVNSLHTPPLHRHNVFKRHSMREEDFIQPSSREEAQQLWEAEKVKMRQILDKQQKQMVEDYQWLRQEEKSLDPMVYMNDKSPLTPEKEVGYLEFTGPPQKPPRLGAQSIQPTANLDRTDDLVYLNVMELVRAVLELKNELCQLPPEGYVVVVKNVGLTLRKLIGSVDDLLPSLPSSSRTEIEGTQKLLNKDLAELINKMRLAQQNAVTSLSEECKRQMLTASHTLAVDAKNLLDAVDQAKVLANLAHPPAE

Results on two molecules are retold here after US20110136232A1 (MAYO FOUNDATION FOR MEDICAL EDUCATION AND RESEARCH, published 2011).

For experiment [1], the target named is FLAG-epitope tagged wild type Pyk2 (UniProt Q14289). As to the kind of experiment: co-immunoprecipitation: anti-HA precipitates of co-transfected SF767 cells blotted with anti-FLAG.
Experiment [2] has as its target endogenous Pyk2 of SF767 cells (human) (UniProt Q14289). Description: co-immunoprecipitation with anti-Pyk2 antibodies from SF767-12A10 scFv cells.
Experiment [3] has the same target. As to the kind of experiment: co-immunoprecipitation: anti-Pyk2 precipitates of SF767-12A10 scFv cells reprobed with anti-HA.

B1: 12A10 scFv 3x HA (scFv)
scFv: MEVKLQESGPELKKPGETVKISCKASGYTFTDYSMHWVMQSPGKGLKWMGWINTETGEPRYVDDFKGRFAFSLETSASTAYLQIINLKNEDTATYFCARWDHGHGGFTYWGQGTLVTVSAGGGGSGGGGSGGGGSDIVLTQTTASLAVSLGQRATMSCRATESVDSYGKSFMYWFQQRAGQPPKLLIYLASNLESVVPPRFSGSGSRTDFSLTIDPVEADDAATYYCQQNNEDPFTFGSGTKLEIKLEGSYPYDVPDYAGYPYDVPDYAGSYPYDVPDYAAQCGR
Turning to B1, the binding result in experiment [1] is recorded as “binds”.

B2: 12A10 scFv stably expressed in SF767 cells by lentiviral transduction (scFv, not shown: small tags and cut ends)
scFv: MEVKLQESGPELKKPGETVKISCKASGYTFTDYSMHWVMQSPGKGLKWMGWINTETGEPRYVDDFKGRFAFSLETSASTAYLQIINLKNEDTATYFCARWDHGHGGFTYWGQGTLVTVSAGGGGSGGGGSGGGGSDIVLTQTTASLAVSLGQRATMSCRATESVDSYGKSFMYWFQQRAGQPPKLLIYLASNLESVVPPRFSGSGSRTDFSLTIDPVEADDAATYYCQQNNEDPFTFGSGTKLEIK
In the case of B2, the binding entry in experiment [2] and in experiment [3] was “binds” in each case.
